From PubChem BioAssay AID2685 (National Center for Advancing Translational Sciences (NCATS), 2010)
Some of the results follow. The main result of the screen is listed elsewhere. These columns were measured beside it and carry no call. Most of these compounds were active or inconclusive in the main read-out, so they are no random draw. Words in brackets tell the shape of the fitted curve; partial curves, single points and poor fits give uncertain potencies.

Assay: qHTS Assay for Lipid Storage Modulators in Drosophila S3 Cells;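 on cell number change: cells counted by Cell Tracker Red CMTPX staining in the red channel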
Settings: BODIPY lipid droplet fluorescence, 18-24 h; for cell number change: measured here: cell count max response, cells fed with added oleic acid
In short: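 Drosophila S3 cells got compounds at several concentrations plus oleic acid (400 uM solution). Laser-scanning cytometry with 488 nm excitation read lipid droplets at 500-530 nm and cells at 575-640 nm. Percent activity was relative to 20 uM Triacsin C.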

[1] = measured here: lipid fluorescence (Fed channel) AC50, cells fed with added oleic acid
[2] = measured here: cell number channel AC50, cells fed with added oleic acid

Compound | cell number change [%] | AC50 [1] | AC50 [2]
CC1CN(C2=CC(=O)CCC2)CC(C)O1 (centres undefined) | 42.9 | – | –
COc1ccccc1C(=O)NCC(=O)N1CCN(S(=O)(=O)c2ccccc2C(F)(F)F)CC1 | -9.5 | 4.61 µM [falling, partial curve, poor fit] | –
O=C(CSc1nncs1)NCCNC(=O)CSc1nncs1 | 8.02 | 2.06 µM [rising, single point] | –
CCc1cccc(CC)c1N1C(=O)c2cc(N3CCOCC3)c([N+](=O)[O-])cc2C1=O | -72.2 | 18.4 µM [falling, partial curve] | 18.4 µM [falling, partial curve]
CC(NC(=O)c1cccc(S(=O)(=O)N2CCc3ccccc3C2)c1)c1ccco1 (centres undefined) | -7.52 | 13 µM [falling, partial curve] | –
CN1CCN(C(=O)CSc2nnc(COc3ccccc3)o2)CC1 | -11.8 | 35.5 µM [rising, single point] | –
Cc1cc(C)c(S(=O)(=O)N2CCC3(CC2)OCCN3S(=O)(=O)c2cccs2)c(C)c1 | -14.1 | – | –
CC(C)N(Cc1ccccc1)C(=O)c1cnc2n(c1=O)CCS2 | – | 4.11 µM [falling, single point] | –
COc1ccc(-n2nc(C(=O)NCC(=O)NC3CCCCCC3)c3ccccc3c2=O)c(OC)c1 | 56.3 | 0.58 µM [rising, single point] | 29.1 µM [rising, single point]
CC(=O)Nc1ccc(S(=O)(=O)Nc2ccc(-n3cnnn3)cc2)cc1 | 2.89 | 7.31 µM [rising, partial curve] | –
O=C(CSc1ncnc2c1oc1ccccc12)Nc1ccccc1F | 21.8 | 2.91 µM [rising, single point] | –
C/C(=N\NC(=O)c1csc(C)c1C)c1ccc(Cl)s1 | 53.7 | 0.164 µM [rising, full curve, poor fit] | 32.6 µM [rising, partial curve]
O=C(CC12CC3CC(CC(C3)C1)C2)NCC(=O)N1CCCC1 | -7.8 | – | –
FC(F)Oc1ccc(NC(=S)NCC2COc3ccccc3O2)cc1 (centres undefined) | – | 0.206 µM [rising, full curve, poor fit] | –
CC(C)CC(=O)c1c[nH]c(C(=O)NCc2cccs2)c1 | 28 | 3.66 µM [rising, partial curve] | 0.0146 µM [rising, full curve, poor fit]
COc1ccc(-c2nc(CS(=O)(=O)CC(=O)NCCc3ccc(C)cc3)c(C)o2)cc1 | -4.82 | – | –
CN(C)S(=O)(=O)c1cccc(NC(=O)Cc2ccsc2)c1 | 13.2 | – | –
Cc1cc(C(F)F)n2nc(C(=O)NCc3ccccc3F)nc2n1 | -2.04 | 1.46 µM [rising, partial curve] | –
Cc1ccc(-n2c(C)nc3c(cnn3-c3ccc(C)c(C)c3)c2=O)cc1C | 33.3 | 5.8 µM [rising, full curve] | 13 µM [rising, partial curve]
Cc1nc(-n2ncc(C#N)c2N)c2c3c(sc2n1)CCC3 | – | 3.26 µM [rising, partial curve] | 2.06 µM [rising, partial curve]
O=C(c1ccccc1)c1c2c(cc3sc4ccccc4[n+]13)-c1cccc3cccc-2c13 | -46 | 1.46 µM [falling, full curve] | 5.8 µM [falling, full curve]

Full records, quoted from the list. Values in the order: cell number change [%]	AC50 [1]	AC50 [2]
`O=C(CSc1nncs1)NCCNC(=O)CSc1nncs1` reads 8.02	2.06 µM [rising, single point]	–
`Cc1cc(C(F)F)n2nc(C(=O)NCc3ccccc3F)nc2n1` reads -2.04	1.46 µM [rising, partial curve]	–
`COc1ccc(-n2nc(C(=O)NCC(=O)NC3CCCCCC3)c3ccccc3c2=O)c(OC)c1` reads 56.3	0.58 µM [rising, single point]	29.1 µM [rising, single point]
`CC(NC(=O)c1cccc(S(=O)(=O)N2CCc3ccccc3C2)c1)c1ccco1` (centres undefined) reads -7.52	13 µM [falling, partial curve]	–

Further compounds.

Compound | cell number change [%] | AC50 [1] | AC50 [2]
Cc1ccc(CN2CC(C(=O)Nc3ccc(C)cn3)CC2=O)cc1 (centres undefined) | 21 | 25.9 µM [rising, single point] | –
O=c1nc2n(c3ccccc13)Cc1ccccc1-2 | 9.65 | 6.51 µM [rising, single point] | –
Cc1ccc(OCC(=O)Nc2ccccc2N2CCOCC2)c(C)c1 | 0.188 | – | –
CCOC(=O)c1c(C)[nH]c(C(=O)/C(C#N)=C/c2ccc(OC(F)F)c(OC)c2)c1C | 42.1 | – | 5.17 µM [rising, partial curve]
Cc1cc(C)n2c(Br)c(CSc3nc4ccccc4o3)nc2n1 | 2.84 | 25.9 µM [rising, single point] | –
O=C(O)c1ccccc1SCc1cn2cc(Cl)ccc2n1 | 16.7 | – | 1.64 µM [falling, partial curve]
COc1ccc(-c2csc(-c3ccc(O)cc3)n2)cc1 | -48.8 | 29.1 µM [falling, single point] | 29.1 µM [falling, single point]
CC12CCC(=O)N1C(C(=O)NNC(=O)c1ccc(Br)cc1)CS2 (centres undefined) | 3 | – | –
Cc1occc1-c1nnc(SCC(=O)Nc2nc(-c3ccccc3)cs2)o1 | -52.9 | 18.4 µM [falling, single point] | 20.6 µM [falling, single point]
O=C(Nc1ccc(F)cc1)C1C2CCC3C(CCC21)C3(Cl)Cl (centres undefined) | 16.4 | – | –
CN1C(=O)/C(=C\c2ccco2)N=C1c1ccc(Cl)cc1Cl | 6.28 | 20.6 µM [rising, single point] | –
COc1ccc(N2C(=O)C3C(C2=O)C2C=CC3C23CC3)c(OC)c1 (centres undefined) | -0.0696 | 14.6 µM [falling, partial curve, poor fit] | –
Cc1cccn2cc(CCNC(=O)c3ccco3)nc12 | -3.43 | – | –
O=C(N/N=C/c1ccncc1)C1CC1C(=O)N/N=C/c1ccncc1 (centres undefined) | -7.07 | – | –
COc1cccc(N(C(=O)c2cnccn2)C(C(=O)NC2CCCCC2)c2ccc(Cl)cc2)c1 (centres undefined) | – | 0.411 µM [rising, partial curve, poor fit] | –
CCOc1ccc(N(CC(=O)Nc2cccc(Cl)c2)S(=O)(=O)c2c(C)noc2C)cc1 | -12.5 | 0.58 µM [falling, partial curve] | –
COc1ccccc1-c1nc2cc(Cl)ccc2c(=O)n1O | 19.9 | 3.66 µM [falling, single point] | –
CC(C)C(NC(=O)c1ccccc1Cl)C(=O)OCc1nc2scc(-c3ccccc3Cl)c2c(=O)[nH]1 (centres undefined) | 15.8 | 29.1 µM [rising, single point] | –
Cc1ccc2oc(=O)c3cc(C(=O)NCCCN4CCCCCC4)sc3c2c1 | -5.67 | – | –
Cc1ccc(NC(=O)c2cnn(-c3ccccc3)c2NC(=O)c2ccco2)cc1 | 0.84 | 0.651 µM [falling, single point] | –
NC(=O)COc1ccc2cc(-c3ccccc3)c(=O)oc2c1 | -16.4 | 0.206 µM [falling, full curve, poor fit] | –

Compound | cell number change [%] | AC50 [1] | AC50 [2]
O=C(CCNS(=O)(=O)c1ccc(OC(F)(F)F)cc1)N1CCCC1 | -0.803 | – | –
CC(C)Cn1cnc2c1c(=O)n(CC(=O)Nc1ccc3c(c1)OCO3)c(=O)n2Cc1ccccc1 | 54.8 | 16.4 µM [rising, partial curve] | 20.6 µM [rising, single point]
Cc1ccc(N(C(=O)Cn2nnc(-c3ccccc3F)n2)C(C(=O)NC2CCCC2)c2ccncc2)cc1 (centres undefined) | -25.7 | – | –
Cc1ccccc1Cn1nnc(-c2ccc(F)cc2)n1 | -30.6 | 0.651 µM [falling, partial curve, poor fit] | –
COc1ccc2oc(C(=O)NNC(=O)c3ccc(F)cc3)c(C)c2c1 | – | 13 µM [rising, partial curve] | –
O=C(O)c1cc([N+](=O)[O-])ccc1Nc1ccccc1 | -37 | 6.51 µM [rising, single point] | 5.8 µM [falling, partial curve]
CC12CN3CC(C)(CN(C1)C31C(=O)N(Cc3ccccc3)c3ccccc31)C2=O (centres undefined) | 13.7 | 20.6 µM [rising, single point] | –
Cc1ccc2c(c1)N(C(=O)CCC(=O)N1CCc3ccccc3C1)CCO2 | -17.4 | – | –
CC(=O)c1ccc(OCC(O)CN2CCN(c3ccccn3)CC2)cc1 (centres undefined) | – | 8.2 µM [falling, partial curve, poor fit] | –
CCOC(=O)c1c(C)[nH]c(C)c1C(=O)COC(=O)c1cccnc1SC | -4.89 | 0.731 µM [falling, partial curve, poor fit] | –
CCOC(=O)C1CCCN(Cc2ccc(OC)cc2OC)C1 (centres undefined) | -14.9 | 0.517 µM [falling, full curve] | –
CC(C)(C)C(=O)/C=C/Nc1ccccc1O | -9.59 | 4.11 µM [rising, single point] | 0.82 µM [falling, partial curve]
O=C(CC1(O)C(=O)Nc2ccccc21)c1cccc(Br)c1 (centres undefined) | 2.33 | 9.2 µM [falling, partial curve] | –
Cc1cccc(S(=O)(=O)c2c(N)n(/N=C/c3cccnc3)c3nc4ccccc4nc23)c1 | -2.39 | – | –
CNC(=S)N/N=C(\C)c1cccc(C(F)(F)F)c1 | – | 3.26 µM [rising, single point] | –
COc1cc(C(C)=O)ccc1OC(=O)c1cc2cccc(OC)c2oc1=O | -1.06 | – | –
COc1cccc(CN2CCC(n3nccc3NC(=O)CCCc3ccccc3)CC2)c1O | -23.8 | 6.51 µM [falling, single point] | –
CC1CCC(N2CCN(c3ncccn3)CC2)C1 (centres undefined) | -29.5 | – | –
CN(CC(=O)Nc1ccccc1Cl)CC(=O)N1CCc2ccccc21 | 12.4 | 2.06 µM [rising, full curve] | –
CC(C)(C)C1CCC(=NNC(=O)c2ccc(Br)o2)CC1 (centres undefined) | 19.2 | 0.00517 µM [rising, full curve, poor fit] | –
COc1cccc(NC(=O)c2ccc3c(c2)N(CC(=O)N2CCCCC2)C(=O)C(C)(C)O3)c1 | 11.7 | 0.13 µM [falling, full curve, poor fit] | –
